Test results published in article PMC7948496.
These are yes or no findings as the source states them, for the method shown. In cells and extracts the contact can be indirect. A result given as binding can be weak or reduced; the word gives no strength. For part of these data: Sequences can lack the tags named with a protein. Each block holds one molecule with its values, some of them ahead of it.

Chains of the proteins cited; added tags and fusions are not shown. Lines headed by an entry give the natural chain unless they say otherwise; changes in a name come on top.
UniProt P46531: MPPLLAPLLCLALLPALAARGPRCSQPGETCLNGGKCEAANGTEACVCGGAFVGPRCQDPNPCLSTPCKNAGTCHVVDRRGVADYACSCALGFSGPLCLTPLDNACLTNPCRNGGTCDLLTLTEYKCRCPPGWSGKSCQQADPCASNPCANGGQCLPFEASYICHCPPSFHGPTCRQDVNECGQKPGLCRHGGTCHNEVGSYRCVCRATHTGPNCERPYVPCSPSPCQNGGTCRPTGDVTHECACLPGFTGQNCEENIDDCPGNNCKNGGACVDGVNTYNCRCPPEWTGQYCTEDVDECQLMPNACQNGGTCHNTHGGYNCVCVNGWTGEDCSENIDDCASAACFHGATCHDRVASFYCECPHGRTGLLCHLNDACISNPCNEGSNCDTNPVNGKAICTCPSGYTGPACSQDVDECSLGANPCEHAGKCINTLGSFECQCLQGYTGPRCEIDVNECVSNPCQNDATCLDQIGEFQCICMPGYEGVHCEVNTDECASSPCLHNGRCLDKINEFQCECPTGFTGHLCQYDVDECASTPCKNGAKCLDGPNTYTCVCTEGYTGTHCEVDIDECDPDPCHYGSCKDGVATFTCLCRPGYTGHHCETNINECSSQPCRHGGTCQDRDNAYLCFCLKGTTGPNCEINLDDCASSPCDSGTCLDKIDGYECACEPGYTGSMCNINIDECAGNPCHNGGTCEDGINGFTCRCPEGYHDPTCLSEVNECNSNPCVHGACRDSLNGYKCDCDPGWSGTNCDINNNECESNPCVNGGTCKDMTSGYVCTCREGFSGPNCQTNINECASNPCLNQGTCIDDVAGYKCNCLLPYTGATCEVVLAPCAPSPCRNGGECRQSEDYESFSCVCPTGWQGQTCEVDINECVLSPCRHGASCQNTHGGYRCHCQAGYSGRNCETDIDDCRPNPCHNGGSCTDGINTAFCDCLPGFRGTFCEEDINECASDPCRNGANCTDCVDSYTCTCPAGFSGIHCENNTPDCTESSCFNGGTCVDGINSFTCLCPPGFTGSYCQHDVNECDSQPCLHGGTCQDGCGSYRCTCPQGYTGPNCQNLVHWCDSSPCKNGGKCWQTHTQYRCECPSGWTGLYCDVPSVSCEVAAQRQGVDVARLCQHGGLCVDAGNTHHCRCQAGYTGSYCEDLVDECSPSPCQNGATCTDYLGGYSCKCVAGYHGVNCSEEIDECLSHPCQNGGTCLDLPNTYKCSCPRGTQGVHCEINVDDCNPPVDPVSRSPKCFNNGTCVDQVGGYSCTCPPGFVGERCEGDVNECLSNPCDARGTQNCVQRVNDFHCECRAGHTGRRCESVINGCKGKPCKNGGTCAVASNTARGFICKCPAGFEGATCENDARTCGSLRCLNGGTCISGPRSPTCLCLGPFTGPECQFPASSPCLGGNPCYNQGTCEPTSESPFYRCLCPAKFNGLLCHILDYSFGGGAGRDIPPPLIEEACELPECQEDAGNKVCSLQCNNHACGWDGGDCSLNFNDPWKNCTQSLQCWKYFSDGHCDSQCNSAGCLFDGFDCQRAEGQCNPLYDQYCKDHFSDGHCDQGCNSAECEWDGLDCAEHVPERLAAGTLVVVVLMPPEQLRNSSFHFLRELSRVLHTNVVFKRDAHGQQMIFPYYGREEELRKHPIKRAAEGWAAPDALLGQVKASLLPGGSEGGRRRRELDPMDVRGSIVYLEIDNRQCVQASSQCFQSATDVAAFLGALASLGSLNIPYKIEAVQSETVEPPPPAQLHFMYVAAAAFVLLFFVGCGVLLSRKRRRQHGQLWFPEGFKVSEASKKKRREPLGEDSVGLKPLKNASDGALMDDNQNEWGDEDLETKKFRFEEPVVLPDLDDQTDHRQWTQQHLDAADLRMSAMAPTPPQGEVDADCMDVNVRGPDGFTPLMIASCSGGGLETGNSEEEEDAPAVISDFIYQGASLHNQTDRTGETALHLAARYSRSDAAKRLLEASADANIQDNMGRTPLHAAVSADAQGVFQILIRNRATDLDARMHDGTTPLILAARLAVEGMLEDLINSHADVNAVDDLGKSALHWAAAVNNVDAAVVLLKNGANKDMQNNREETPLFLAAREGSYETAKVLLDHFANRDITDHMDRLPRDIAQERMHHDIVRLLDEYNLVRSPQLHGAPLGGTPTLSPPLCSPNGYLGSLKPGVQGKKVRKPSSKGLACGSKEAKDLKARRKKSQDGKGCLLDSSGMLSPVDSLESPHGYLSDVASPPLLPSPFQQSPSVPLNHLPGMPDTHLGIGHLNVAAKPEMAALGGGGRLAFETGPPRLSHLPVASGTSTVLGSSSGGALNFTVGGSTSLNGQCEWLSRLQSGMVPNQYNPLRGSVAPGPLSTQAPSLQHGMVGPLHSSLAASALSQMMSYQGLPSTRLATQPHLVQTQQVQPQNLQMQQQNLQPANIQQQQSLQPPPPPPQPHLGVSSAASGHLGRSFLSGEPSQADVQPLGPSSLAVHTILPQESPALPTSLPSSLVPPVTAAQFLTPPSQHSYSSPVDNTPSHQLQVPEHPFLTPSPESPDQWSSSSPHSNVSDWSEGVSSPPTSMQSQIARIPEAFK
UniProt Q9NQB0: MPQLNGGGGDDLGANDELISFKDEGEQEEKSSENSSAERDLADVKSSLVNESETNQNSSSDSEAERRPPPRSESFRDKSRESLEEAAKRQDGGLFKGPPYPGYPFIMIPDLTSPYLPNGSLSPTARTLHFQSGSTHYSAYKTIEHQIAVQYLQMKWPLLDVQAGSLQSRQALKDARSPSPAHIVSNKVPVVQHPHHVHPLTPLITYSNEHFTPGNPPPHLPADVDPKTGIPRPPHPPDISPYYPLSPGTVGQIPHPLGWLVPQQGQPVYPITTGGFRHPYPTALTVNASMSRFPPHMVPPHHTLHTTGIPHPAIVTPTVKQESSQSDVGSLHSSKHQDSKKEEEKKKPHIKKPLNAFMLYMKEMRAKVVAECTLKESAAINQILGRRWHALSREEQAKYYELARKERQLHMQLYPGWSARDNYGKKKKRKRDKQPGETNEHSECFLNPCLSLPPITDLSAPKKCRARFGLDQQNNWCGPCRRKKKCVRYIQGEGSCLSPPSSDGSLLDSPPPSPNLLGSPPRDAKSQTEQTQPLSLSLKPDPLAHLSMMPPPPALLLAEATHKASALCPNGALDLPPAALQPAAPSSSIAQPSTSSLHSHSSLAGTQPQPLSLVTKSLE

Experiments:
Assay in all cases: pull-down; GST pull-down of a protein with the different domains of its partner; which partner was the GST fusion is not told; as described previously (ref. 38)
[1] = target: C-terminal domain of JMJD2D (human (HepG2 cDNA)) (UniProt Q6B0I6)
[2] = target: ANK domain of NICD1 (human (HepG2 cDNA)) (UniProt P46531)
[3] = target: HMG Box domain of TCF4 (human (HepG2 cDNA)) (UniProt Q9NQB0)

binding [1]: binds
Molecule: TCF4, construct of the GST pull-down assays (from UniProt Q9NQB0 1-619)

binding [2]: binds | binding [3]: binds
B1: JMJD2D, construct of the GST pull-down assays (enzyme, UniProt Q6B0I6 1-523)
chain: METMKSKANCAQNPNCNIMIFHPTKEEFNDFDKYIAYMESQGAHRAGLAKIIPPKEWKARETYDNISEILIATPLQQVASGRAGVFTQYHKKKKAMTVGEYRHLANSKKYQTPPHQNFEDLERKYWKNRIYNSPIYGADISGSLFDENTKQWNLGHLGTIQDLLEKECGVVIEGVNTPYLYFGMWKTTFAWHTEDMDLYSINYLHLGEPKTWYVVPPEHGQRLERLARELFPGSSRGCGAFLRHKVALISPTVLKENGIPFNRITQEAGEFMVTFPYGYHAGFNHGFNCAEAINFATPRWIDYGKMASQCSCGEARVTFSMDAFVRILQPERYDLWKRGQDRAVVDHMEPRVPASQELSTQKEVQLPRRAALGLRQLPSHWARHSPWPMAARSGTRCHTLVCSSLPRRSAVSGTATQPRAAAVHSSKKPSSTPSSTPGPSAQIIHPSNGRRGRGRPPQKLRAQELTLQTPAKRPLLAGTTCTASGPEPEPLPEDGALMDKPVPLSPGLQHPVKASGCSWAPVP
